PubChem BioAssay AID652272 – Drosophila RNAi Screening Center – 2013
Screen: 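Finding fly genes that regulate Hedgehog signal transduction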 (primary screen). Cell system: Drosophila clone 8 (Cl8) cells. Reagent: long dsRNA against Drosophila genes. Read-out: 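Plate reader light from a firefly reporter under a ptc promoter fragment that responds to Hedgehog, with Renilla light as transfection reference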. Scale: firefly Hh reporter signal: higher = more ptc reporter light; Renilla reference signal: higher = more Renilla control light. Call rule: 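Called a hit if the two-replicate mean z-score lies below -2 or above +3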. Calls: active = hit: reporter lowered or raised; inactive = not a hit.
The deposit covers about 21,000 reagents; below is a random part of those with a known target gene and a result. Over the whole deposit, 503 (2.4%) are marked active. 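Raw plate light values, not normalised; calls rest on replicate z-scores that were not deposited; hits include reporter decreases as well as increases.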 A number with no mark means an inactive call. A plus sign joins genes that one reagent is predicted to hit. Not given: the amount of reagent, the time to read-out.

{"gene": "CG5254", "dsRNA": "DRSC18611", "firefly Hh reporter signal, replicate 1": 66901, "firefly Hh reporter signal, replicate 2": 2.21e5, "Renilla reference signal, replicate 1": 2539, "Renilla reference signal, replicate 2": 7776}
{"gene": "blo", "dsRNA": "DRSC05937", "firefly Hh reporter signal, replicate 1": 74982, "firefly Hh reporter signal, replicate 2": 43341, "Renilla reference signal, replicate 1": 3360, "Renilla reference signal, replicate 2": 1968}
{"gene": "CG10702", "dsRNA": "DRSC02097", "firefly Hh reporter signal, replicate 1": 52001, "firefly Hh reporter signal, replicate 2": 74122, "Renilla reference signal, replicate 1": 2273, "Renilla reference signal, replicate 2": 2956}
{"gene": "Tsp66A + CG42661 + CG42660", "dsRNA": "DRSC10233", "firefly Hh reporter signal, replicate 1": 94116, "firefly Hh reporter signal, replicate 2": 54928, "Renilla reference signal, replicate 1": 9373, "Renilla reference signal, replicate 2": 3984}
{"gene": "Rtel1", "dsRNA": "DRSC18343", "firefly Hh reporter signal, replicate 1": 94656, "firefly Hh reporter signal, replicate 2": 2.68e5, "Renilla reference signal, replicate 1": 3414, "Renilla reference signal, replicate 2": 9028}
{"gene": "CG15322", "dsRNA": "DRSC20680", "firefly Hh reporter signal, replicate 1": 63741, "firefly Hh reporter signal, replicate 2": 1.30e5, "Renilla reference signal, replicate 1": 2228, "Renilla reference signal, replicate 2": 4727}
{"gene": "CG2444", "dsRNA": "DRSC19846", "firefly Hh reporter signal, replicate 1": 64618, "firefly Hh reporter signal, replicate 2": 2.44e5, "Renilla reference signal, replicate 1": 1670, "Renilla reference signal, replicate 2": 9372}
{"gene": "CDase", "dsRNA": "DRSC14932", "firefly Hh reporter signal, replicate 1": 73128, "firefly Hh reporter signal, replicate 2": 63383, "Renilla reference signal, replicate 1": 1273, "Renilla reference signal, replicate 2": 1827}
{"gene": "CG11470", "dsRNA": "DRSC14313", "firefly Hh reporter signal, replicate 1": 74882, "firefly Hh reporter signal, replicate 2": 1.03e5, "Renilla reference signal, replicate 1": 2010, "Renilla reference signal, replicate 2": 3027}
{"gene": "TwdlT", "dsRNA": "DRSC16677", "firefly Hh reporter signal, replicate 1": 1.35e5, "firefly Hh reporter signal, replicate 2": 1.21e5, "Renilla reference signal, replicate 1": 4120, "Renilla reference signal, replicate 2": 3505}
{"gene": "CG7069", "dsRNA": "DRSC16188", "firefly Hh reporter signal, replicate 1": 1.16e5, "firefly Hh reporter signal, replicate 2": 93333, "Renilla reference signal, replicate 1": 5027, "Renilla reference signal, replicate 2": 4085}
{"gene": "CG15239", "dsRNA": "DRSC17972", "firefly Hh reporter signal, replicate 1": 65621, "firefly Hh reporter signal, replicate 2": 1.54e5, "Renilla reference signal, replicate 1": 2121, "Renilla reference signal, replicate 2": 6883}
{"gene": "Drsl2", "dsRNA": "DRSC08160", "firefly Hh reporter signal, replicate 1": 92230, "firefly Hh reporter signal, replicate 2": 59485, "Renilla reference signal, replicate 1": 2194, "Renilla reference signal, replicate 2": 5536}
{"gene": "CG12115", "dsRNA": "DRSC17811", "firefly Hh reporter signal, replicate 1": 1.59e5, "firefly Hh reporter signal, replicate 2": 3.53e5, "Renilla reference signal, replicate 1": 5544, "Renilla reference signal, replicate 2": 13264}

Sorted by “firefly Hh reporter signal, replicate 2” (ascending): some entries from above.
{"gene": "Drsl2", "dsRNA": "DRSC08160", "firefly Hh reporter signal, replicate 1": 92230, "firefly Hh reporter signal, replicate 2": 59485, "Renilla reference signal, replicate 1": 2194, "Renilla reference signal, replicate 2": 5536}
{"gene": "CG15239", "dsRNA": "DRSC17972", "firefly Hh reporter signal, replicate 1": 65621, "firefly Hh reporter signal, replicate 2": 1.54e5, "Renilla reference signal, replicate 1": 2121, "Renilla reference signal, replicate 2": 6883}

Further reagents follow:
{"gene": "Rab4", "dsRNA": "DRSC07524", "firefly Hh reporter signal, replicate 1": 89751, "firefly Hh reporter signal, replicate 2": 82448, "Renilla reference signal, replicate 1": 4432, "Renilla reference signal, replicate 2": 3511}
{"gene": "CG42525", "dsRNA": "DRSC08026", "firefly Hh reporter signal, replicate 1": 5.64e5, "firefly Hh reporter signal, replicate 2": 1.07e5, "firefly Hh reporter signal, replicate 3": 1.36e5, "Renilla reference signal, replicate 1": 5531, "Renilla reference signal, replicate 2": 2928}
{"gene": "Dred", "dsRNA": "DRSC11057", "firefly Hh reporter signal, replicate 1": 1.26e5, "firefly Hh reporter signal, replicate 2": 1.08e5, "Renilla reference signal, replicate 1": 4445, "Renilla reference signal, replicate 2": 3280}
{"gene": "Dred", "dsRNA": "DRSC11059", "firefly Hh reporter signal, replicate 1": 4.19e5, "firefly Hh reporter signal, replicate 2": 76476, "Renilla reference signal, replicate 1": 4048, "Renilla reference signal, replicate 2": 4048}
{"gene": "CG31917 + Tfb5", "dsRNA": "DRSC02362", "firefly Hh reporter signal, replicate 1": 1.66e5, "firefly Hh reporter signal, replicate 2": 78028, "Renilla reference signal, replicate 1": 3216, "Renilla reference signal, replicate 2": 5533}
{"gene": "CG31917 + Tfb5", "dsRNA": "DRSC02363", "firefly Hh reporter signal, replicate 1": 64641, "firefly Hh reporter signal, replicate 2": 42790, "Renilla reference signal, replicate 1": 1574, "Renilla reference signal, replicate 2": 2487}
{"gene": "CG31948", "dsRNA": "DRSC00740", "firefly Hh reporter signal, replicate 1": 1.06e5, "firefly Hh reporter signal, replicate 2": 86439, "Renilla reference signal, replicate 1": 2579, "Renilla reference signal, replicate 2": 2353}
